# Values of other authors, collected in US20130281398A1, “TREATMENT OF DISEASES BY EPIGENETIC REGULATION” (RVX Therapeutics Inc., priority 2012, published 2013).
# System: lipopolysaccharide-induced endotoxic shock and bacteria-induced sepsis
# Settings: Nicodeme et al. (2010); cited from earlier work
smiles,measurement,value
CCNC(=O)C[C@@H]1N=C(c2ccc(Cl)cc2)c2cc(OC)ccc2-n2c(C)nnc21 [I-BET],protection against endotoxic shock and sepsis,confer protection
